PubChem BioAssay AID1259308 – NCATS | 2017
The deposit covers about 59,000 reagents; this is a part drawn at random. Of all reagents, about 1,510 (2.6%) were called active. 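Calls use total luciferase alone and ignore viability, so some active siRNAs may act by altering cell number.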 Unmarked entries are inactive. The numbers tell different reagents against one gene apart. Further read-outs or replicates are left out here.

Aim: 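Knock-downs that increase output of a recombinant reporter protein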 (primary screen)
Cell system: human HEK293 embryonic kidney cells stably expressing firefly luciferase (HEK-CMV-Luc2-Hygro)
Reagents: single siRNA against human genes, 0.8 pmol siRNA per well
Time to read-out: 72 h
Measurement: 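Reporter luminescence and viable-cell signal on separate replicate plates, given as percent of non-targeting control and median/MAD z-scores, plus per-cell luciferase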
Direction: total luciferase, z-score: higher = more reporter protein produced
Active means: 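Active when the median/MAD z-score for overall luciferase is greater than 3; a gene was taken forward for validation with new siRNAs if at least two of its three siRNAs passed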
Meaning of the calls: active = raised luciferase; inactive = no rise

total luciferase, z-score, by target gene and reagent
TEKT1 (tektin 1): #1 -0.784; #2 -0.121; #3 0.00752
RHCE (Rh blood group CcEe antigens): #1 3.09 (active); #2 -0.604; #3 -0.704
ME2 (malic enzyme 2): #1 -0.595; #2 -1.14; #3 -0.0187
KLK12 (kallikrein related peptidase 12): #1 5.76 (active); #2 0.126; #3 0.687
SLCO4C1: #1 -0.407; #2 1.2; #3 0.26
ANKMY1 (ankyrin repeat and MYND domain containing 1): #1 0.934; #2 -1.42; #3 -0.254
NXF2B (nuclear RNA export factor 2B): #1 0.194; #2 0.175; #3 1.9
PPP2R5D (protein phosphatase 2 regulatory subunit B'delta): #1 -1.11; #2 0.109; #3 -0.25

A few values from above.
PPP2R5D (protein phosphatase 2 regulatory subunit B'delta) #3, total luciferase, z-score: -0.25
Under “total luciferase, z-score”, PPP2R5D (protein phosphatase 2 regulatory subunit B'delta) #2 has 0.109
